Measurements published in patent US20240066008A1, “Device and Antitumor Drug for the Treatment of Neoplastic Cells” (Telea Electronic Engineering SRL, priority 2021, published 2024).
For at least one compound, name, drawing or mass did not settle the structure.

Key:
A172 glioblastoma cells [1] = assay: Apoptosis, Annexin V/7-AAD labelling, flow cytometry; format: cell-based; settings: combined administration of TMZ (10 μM and 25 μM) and QMR, FIGS. 13a and 13b
A172 glioblastoma cells [2] = assay: Cell cycle, 7-AAD flow cytometry; format: cell-based
[3] = TMZ combined with QMR, FIG. 14b

`Cn1nnc2c(C(N)=O)ncn2c1=O` [TMZ, temozolomide] was tested, and the “number of cells in early apoptosis” value (A172 glioblastoma cells [1]) was “increase in the number of cells in early apoptosis”, the “cell cycle arrest in G2-M phase” value (A172 glioblastoma cells [2]; [3]) was “significant cell cycle arrest in the G2-M phase” and the “percentage of cells in the G0-G1 phase” value (A172 glioblastoma cells [2]; [3]) was “reduces the percentage of cells in the G0-G1 phase”. For the same compound, the “alteration in cell cycle progression compared to cells treated with TMZ alone” value (A172 glioblastoma cells [2]; simultaneous exposure to TMZ 25 μM and QMR) was “greater alteration in cell cycle progression”.
